# Laboratory results from the supplement of paper PMC8728848.
# This is one part of the list.
# What was measured:
# Assay in all cases: glycan array binding signal (z-score within array); higher = stronger binding
# Settings in all cases: glycan notation: IUPAC condensed, linker removed; mutation: E321K
# [1] = molecular target: Neu5Ac(a2-3)Gal(b1-3)GalNAc(b1-3)Gal(a1-4)Gal(b1-4)Glc
# How it was run: (§1)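 Glycan array data were curated from 3228 arrays in the Consortium for Functional Glycomics database and kept only where the protein sequence was available. Glycan names were converted to IUPAC-condensed notation, and columns mapping to the same glycan were averaged. The binding signal is a within-array Z-score, averaged across arrays of the same protein sequence at different concentrations or buffers and across linkers. Negative Z-scores can be read as non-binding.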
# [2] = molecular target: Neu5Ac(a2-3)Gal(b1-3)GalNAc(b1-3)Gal(b1-4)GlcNAc
# How it was run: as §1
# [3] = molecular target: Neu5Ac(a2-3)Gal(b1-3)GalNAc(b1-4)[Neu5Ac(a2-3)]Gal(b1-4)Glc
# How it was run: as §1
# [4] = molecular target: Neu5Ac(a2-3)Gal(b1-3)GalNAc6S
# How it was run: as §1
# [5] = molecular target: Neu5Ac(a2-3)Gal(b1-3)GlcNAc
# How it was run: as §1
# [6] = molecular target: Neu5Ac(a2-3)Gal(b1-3)GlcNAc(b1-3)Gal(b1-3)GlcNAc
# How it was run: as §1
# [7] = molecular target: Neu5Ac(a2-3)Gal(b1-3)GlcNAc6S
# How it was run: as §1
# [8] = molecular target: Neu5Ac(a2-3)Gal(b1-3)[Fuc(a1-4)]GlcNAc
# How it was run: as §1
# [9] = molecular target: Neu5Ac(a2-3)Gal(b1-3)[Fuc(a1-4)]GlcNAc(b1-3)Gal(b1-4)[Fuc(a1-3)]GlcNAc
# How it was run: as §1
# [10] = molecular target: Neu5Ac(a2-3)Gal(b1-3)[Neu5Ac(a2-3)Gal(b1-4)]GlcNAc
# How it was run: as §1
# [11] = molecular target: Neu5Ac(a2-3)Gal(b1-3)[Neu5Ac(a2-6)]GalNAc
# How it was run: as §1
# Neu5Ac(a2-3)Gal(b1-4)Glc = molecular target: Neu5Ac(a2-3)Gal(b1-4)Glc
# How it was run: as §1
# [12] = molecular target: Neu5Ac(a2-3)Gal(b1-4)GlcNAc
# How it was run: as §1
# [13] = molecular target: Neu5Ac(a2-3)Gal(b1-4)GlcNAc(b1-2)Man(a1-3)[GlcNAc(b1-2)Man(b1-4)GlcNAc(b1-2)Man(a1-6)]Man(b1-4)GlcNAc(b1-4)GlcNAc
# How it was run: as §1
# [14] = molecular target: Neu5Ac(a2-3)Gal(b1-4)GlcNAc(b1-2)Man(a1-3)[Neu5Ac(a2-6)Gal(b1-4)GlcNAc(b1-2)Man(a1-6)]Man(b1-4)GlcNAc(b1-4)GlcNAc
# How it was run: as §1
# [15] = molecular target: Neu5Ac(a2-3)Gal(b1-4)GlcNAc(b1-3)Gal(b1-3)GlcNAc
# How it was run: as §1
# [16] = molecular target: Neu5Ac(a2-3)Gal(b1-4)GlcNAc(b1-3)Gal(b1-4)GlcNAc
# How it was run: as §1
# [17] = molecular target: Neu5Ac(a2-3)Gal(b1-4)GlcNAc(b1-3)Gal(b1-4)GlcNAc(b1-3)Gal(b1-4)GlcNAc
# How it was run: as §1
# [18] = molecular target: Neu5Ac(a2-3)Gal(b1-4)GlcNAc(b1-3)Gal(b1-4)[Fuc(a1-3)]GlcNAc
# How it was run: as §1
# [19] = molecular target: Neu5Ac(a2-3)Gal(b1-4)GlcNAc(b1-6)[Gal(b1-3)]GalNAc
# How it was run: as §1
# [20] = molecular target: Neu5Ac(a2-3)Gal(b1-4)GlcNAc(b1-6)[Neu5Ac(a2-3)Gal(b1-3)]GalNAc
# How it was run: as §1
# [21] = molecular target: Neu5Ac(a2-3)Gal(b1-4)GlcNAc6S
# How it was run: as §1
# [22] = molecular target: Neu5Ac(a2-3)Gal(b1-4)[Fuc(a1-3)]GlcNAc
# How it was run: as §1
# [23] = molecular target: Neu5Ac(a2-3)Gal(b1-4)[Fuc(a1-3)]GlcNAc(b1-3)Gal
# How it was run: as §1
# [24] = molecular target: Neu5Ac(a2-3)Gal(b1-4)[Fuc(a1-3)]GlcNAc(b1-3)Gal(b1-4)GlcNAc
# How it was run: as §1
# [25] = molecular target: Neu5Ac(a2-3)Gal(b1-4)[Fuc(a1-3)]GlcNAc(b1-3)Gal(b1-4)[Fuc(a1-3)]GlcNAc(b1-3)Gal(b1-4)[Fuc(a1-3)]GlcNAc
# How it was run: as §1
# [26] = molecular target: Neu5Ac(a2-3)Gal(b1-4)[Fuc(a1-3)]GlcNAc(b1-6)[Gal(b1-3)]GalNAc
# How it was run: as §1
# [27] = molecular target: Neu5Ac(a2-3)Gal(b1-4)[Fuc(a1-3)]GlcNAc6S
# How it was run: as §1
# [28] = molecular target: Neu5Ac(a2-3)Gal6S(b1-4)GlcNAc
# How it was run: as §1
# [29] = molecular target: Neu5Ac(a2-3)Gal6S(b1-4)[Fuc(a1-3)]GlcNAc
# How it was run: as §1
# Neu5Ac(a2-3)GalNAc = molecular target: Neu5Ac(a2-3)GalNAc
# How it was run: as §1
# [30] = molecular target: Neu5Ac(a2-3)GalNAc(b1-4)GlcNAc
# How it was run: as §1
# [31] = molecular target: Neu5Ac(a2-3)[GalNAc(b1-4)]Gal(b1-4)Glc
# How it was run: as §1
# [32] = molecular target: Neu5Ac(a2-3)[GalNAc(b1-4)]Gal(b1-4)GlcNAc
# How it was run: as §1
# [33] = molecular target: Neu5Ac(a2-3)[Neu5Ac(a2-6)]GalNAc
# How it was run: as §1
# Neu5Ac(a2-6)Gal = molecular target: Neu5Ac(a2-6)Gal
# How it was run: as §1
# Neu5Ac(a2-6)Gal(b1-4)Glc = molecular target: Neu5Ac(a2-6)Gal(b1-4)Glc
# How it was run: as §1
# [34] = molecular target: Neu5Ac(a2-6)Gal(b1-4)GlcNAc
# How it was run: as §1
binder,measurement,setting,value
Surfactant Protein D (Human); Neck + Carbohydrate Recognition Domain (NCRD) (Homo sapiens) (protein) MLLFLLSALVLLTQPLGYLEAEMKTYSHRTMPSACTLVMCSSVESGLPGRDRDGREGPRGEKGDPGLPGAAGQAGMPGQAGPVGPKGDNGSVGEPGPKGDTGPSGPPGPPGVPGPAGREGALGKQGNIGPQGKPGPKGEAGPKGEVGAPGMQGSAGARGLAGPKGERGVPGERGVPGNTGAAGSAGAMGPQGSPGARGPPGLKGDKGIPGDKGAKGESGLPDVASLRQQVEALQGQVQHLQAAFSQYKKVELFPNGQSVGEKIFKTAQFVKPFTEAQLLCTQAGGQLASPRSAAENAALQQLVVAKNEAAFLSMTDSKTEGKFTYPTGESLVYSNWAPGKPNDDGGSEDCVEIFTNGKWNDRACGEKRLVVCEF,glycan array binding signal (z-score),[1],-0.336
same,glycan array binding signal (z-score),[2],-0.559
same,glycan array binding signal (z-score),[3],-0.645
same,glycan array binding signal (z-score),[4],0.404
same,glycan array binding signal (z-score),[5],-0.259
same,glycan array binding signal (z-score),[6],-0.261
same,glycan array binding signal (z-score),[7],-0.012
same,glycan array binding signal (z-score),[8],0.651
same,glycan array binding signal (z-score),[9],-0.389
same,glycan array binding signal (z-score),[10],0.159
same,glycan array binding signal (z-score),[11],1.25
same,glycan array binding signal (z-score),Neu5Ac(a2-3)Gal(b1-4)Glc,-1.12
same,glycan array binding signal (z-score),[12],2.03
same,glycan array binding signal (z-score),[13],-0.987
same,glycan array binding signal (z-score),[14],-0.766
same,glycan array binding signal (z-score),[15],-0.578
same,glycan array binding signal (z-score),[16],0.019
same,glycan array binding signal (z-score),[17],0.299
same,glycan array binding signal (z-score),[18],0.062
same,glycan array binding signal (z-score),[19],-0.045
same,glycan array binding signal (z-score),[20],-1
same,glycan array binding signal (z-score),[21],-0.383
same,glycan array binding signal (z-score),[22],0.494
same,glycan array binding signal (z-score),[23],-0.166
same,glycan array binding signal (z-score),[24],0.33
same,glycan array binding signal (z-score),[25],-0.677
same,glycan array binding signal (z-score),[26],0.318
same,glycan array binding signal (z-score),[27],-0.18
same,glycan array binding signal (z-score),[28],0.549
same,glycan array binding signal (z-score),[29],0.111
same,glycan array binding signal (z-score),Neu5Ac(a2-3)GalNAc,-0.746
same,glycan array binding signal (z-score),[30],3.92
same,glycan array binding signal (z-score),[31],-0.858
same,glycan array binding signal (z-score),[32],0.182
same,glycan array binding signal (z-score),[33],1.14
same,glycan array binding signal (z-score),Neu5Ac(a2-6)Gal,-0.418
same,glycan array binding signal (z-score),Neu5Ac(a2-6)Gal(b1-4)Glc,-0.337
same,glycan array binding signal (z-score),[34],0.405

# Looked up one by one from the list above (two):
binder,measurement,setting,value
Surfactant Protein D (Human); Neck + Carbohydrate Recognition Domain (NCRD) (Homo sapiens) (protein) MLLFLLSALVLLTQPLGYLEAEMKTYSHRTMPSACTLVMCSSVESGLPGRDRDGREGPRGEKGDPGLPGAAGQAGMPGQAGPVGPKGDNGSVGEPGPKGDTGPSGPPGPPGVPGPAGREGALGKQGNIGPQGKPGPKGEAGPKGEVGAPGMQGSAGARGLAGPKGERGVPGERGVPGNTGAAGSAGAMGPQGSPGARGPPGLKGDKGIPGDKGAKGESGLPDVASLRQQVEALQGQVQHLQAAFSQYKKVELFPNGQSVGEKIFKTAQFVKPFTEAQLLCTQAGGQLASPRSAAENAALQQLVVAKNEAAFLSMTDSKTEGKFTYPTGESLVYSNWAPGKPNDDGGSEDCVEIFTNGKWNDRACGEKRLVVCEF,glycan array binding signal (z-score),[17],0.299
same,glycan array binding signal (z-score),[2],-0.559
